Results reported in patent US11795381B2, “Using synthetic acid compositions as alternatives to conventional acids in the oil and gas industry” (priority 2016, dated 2023).

Columns and labels:
[1] = Corrosion testing on J-55 steel coupons; details: Table 9: J-55, 70° C., 6 hours; additives None
[2] = Wormholing Experiment #1 (matrix acidizing core flood); details: 180° F.
[3] = Buijse and Glasbergen fit, Indiana limestone

SMILES | Mils/yr [1] [Mils/yr] | Mm/year [1] [Mm/year] | Optimal Interstitial Velocity [2, 3] [cm/min] | Optimal Pore Volume to Breakthrough [2, 3] | Pore Volume to Breakthrough ([2]; core IC1, injection 8 ml/min, interstitial velocity 4.53 cm/min) | Pore Volume to Breakthrough ([2]; core IC2, injection 10 ml/min, interstitial velocity 6.39 cm/min) | Pore Volume to Breakthrough ([2]; core IC3, injection 7 ml/min, interstitial velocity 4.97 cm/min) | Pore Volume to Breakthrough ([2]; core IC5, injection 5 ml/min, interstitial velocity 3.47 cm/min) | Pore Volume to Breakthrough ([2]; core IC6, injection 3 ml/min, interstitial velocity 2.10 cm/min) | Pore Volume to Breakthrough ([2]; core IC16, injection 2 ml/min, interstitial velocity 1.56 cm/min) | Pore Volume to Breakthrough ([2]; core IC18, injection 0.8 ml/min, interstitial velocity 0.62 cm/min)
Cl [7.5% HC1, hydrochloric acid] | 3550.3032 | 90.178 |  |  |  |  |  |  |  |  | 
Cl [15% HCl, hydrochloric acid] |  |  | 1.97 | 0.46 | 0.60 | 0.52 | 0.60 | 0.51 | 0.47 | 0.64 | 2.93

Counter-ions that a name gives are not always drawn.
